This note sets out measurements from PubChem BioAssay AID318 (DTP/NCI, 2004).

Structures are written as SMILES. The list is a part of this screen's results and no random one: its compounds were picked by chemical class. Other doses and runs of a compound may be missing. T/C: endpoint of the treated group in % of that of the vehicle group. Where survival is the endpoint, this PubChem deposit counts one and a half times the control or more as active, and values a quarter to a half above the control carry no call in these data; other NCI protocols may use other cut-offs. Some entries show no survivor count and are marked so; the dose need not have been tolerated. Schedule codes are those of the source, taken here to give the interval after Q, in days (D) or hours (H), and the number of doses after X. Marks such as (2×) give the number of equal values in this list. Some entries were tested several times; the values are given in rising order.

The assay has as its system BDF1 mice, P815 leukemia ip, survival T/C. Put plainly: NCI In Vivo Anticancer Drug Screen. Data for tumor model P815 Mast Cell Leukemia (Ascitic) (intraperitoneal) in B6D2F1 (BDF1) mice. Conditions: T/C endpoint: survival time, mean or median, schedule: Q01DX010 (ip), vehicle: saline, higher T/C = longer survival. On the procedure: The antitumor activity of compounds was measured in mice bearing transplantable tumors. Survival or tumor size were measured and the results are expressed as the measurement made in the treated group (T) divided by the measurement made in the vehicle treated control group (C). The tumor model used in this assay is P815 Mast Cell Leukemia (Ascitic) (intraperitoneal) in B6D2F1 (BDF1) mice

In the case of `NC(Cc1cccc(N(CCCl)CCCl)c1)C(=O)O` (centres undefined), the T/C by setting is: (dose: 0.63 mg/kg/injection) 116 [survivor count not shown] and 155 % of control [survivor count not shown]; (dose: 1.25 mg/kg/injection) 144 [survivor count not shown] and 172 % of control [survivor count not shown]; (dose: 2.5 mg/kg/injection) 172 [survivor count not shown] and 261 % of control [survivor count not shown]; (dose: 5.0 mg/kg/injection) 105 [survivor count not shown] and 205 % of control [survivor count not shown].

For `ClCCNCCCl`, the T/C runs as follows: (dose: 18.8 mg/kg/injection) 110 [survivor count not shown] and 115 % of control [survivor count not shown]; (dose: 37.5 mg/kg/injection) 113 % of control [survivor count not shown] (2×).

In the case of `CC(C(=O)O)N(CCCl)CCCl` (centres undefined), the T/C is, setting by setting: (dose: 0.5 mg/kg/injection) 122 % of control [survivor count not shown] (2×); (dose: 1.0 mg/kg/injection) 138 % of control [survivor count not shown] (2×); (dose: 2.0 mg/kg/injection) 194 [survivor count not shown] and 272 % of control [survivor count not shown]; (dose: 4.0 mg/kg/injection) 261 % of control [survivor count not shown].

`O=C(O)CN(CCCl)CCCl`: the T/C was 116 [survivor count not shown] and 127 % of control [survivor count not shown] (dose: 0.63 mg/kg/injection); 166 [survivor count not shown] and 216 % of control [survivor count not shown] (dose: 1.25 mg/kg/injection); 300 [survivor count not shown] and 333 % of control [survivor count not shown] (dose: 2.5 mg/kg/injection); 88 % of control [survivor count not shown] (dose: 5.0 mg/kg/injection).

Turning to `NC1CCCCC1.NP(=O)(O)N(CCCl)CCCl`, the T/C by setting is: (dose: 31.3 mg/kg/injection) 172 % of control [survivor count not shown]; (dose: 62.5 mg/kg/injection) 152 % of control [survivor count not shown].

As for `ClCCN(CCCl)Cc1nc2ccccc2[nH]1`, the T/C reads like this: (dose: 1.25 mg/kg/injection) 111 % of control [survivor count not shown]; (dose: 2.5 mg/kg/injection) 120 [survivor count not shown] and 133 % of control [survivor count not shown]; (dose: 5.0 mg/kg/injection) 150 [survivor count not shown] and 155 % of control [survivor count not shown]; (dose: 10.0 mg/kg/injection) 120 [survivor count not shown] and 166 % of control [survivor count not shown].

For `NC(Cc1ccccc1N(CCCl)CCCl)C(=O)O` (centres undefined), the T/C (dose: 0.25 mg/kg/injection) was 138 % of control [survivor count not shown], the T/C (dose: 0.5 mg/kg/injection) was 194 % of control [survivor count not shown], the T/C (dose: 1.0 mg/kg/injection) was 150 % of control [survivor count not shown] and the T/C (dose: 2.0 mg/kg/injection) is 100 % of control [survivor count not shown].
